These are yes or no findings as the source states them, for the method shown. For some of these results: Binding seen in cells or lysates may run through a third protein. Some entries that bind do so weakly or less than the wild type. For some of these results: Where a sequence is shown, tags or fusion partners need not be part of it.

By UniProt entry, the sequences of proteins in these tests, tags left out. Where a name states a change or a piece, a line headed by the entry shows the natural chain unless it says otherwise.
UniProt O00584: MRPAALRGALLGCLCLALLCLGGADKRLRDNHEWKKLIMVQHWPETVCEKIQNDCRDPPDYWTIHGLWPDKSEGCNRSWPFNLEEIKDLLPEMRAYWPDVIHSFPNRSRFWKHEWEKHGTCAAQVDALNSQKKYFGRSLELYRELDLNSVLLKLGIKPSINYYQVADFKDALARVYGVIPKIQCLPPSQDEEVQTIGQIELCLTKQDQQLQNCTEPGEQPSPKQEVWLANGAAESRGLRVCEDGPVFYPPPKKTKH

One assay addresses T1, His-PDIA5 (human, UniProt Q14554 22-519).
T1 construct: PDIA5, human, wild type; source: recombinant protein from Wuhan GeneCreate Biological Engineering Co., Ltd
T1 sequence (looked up): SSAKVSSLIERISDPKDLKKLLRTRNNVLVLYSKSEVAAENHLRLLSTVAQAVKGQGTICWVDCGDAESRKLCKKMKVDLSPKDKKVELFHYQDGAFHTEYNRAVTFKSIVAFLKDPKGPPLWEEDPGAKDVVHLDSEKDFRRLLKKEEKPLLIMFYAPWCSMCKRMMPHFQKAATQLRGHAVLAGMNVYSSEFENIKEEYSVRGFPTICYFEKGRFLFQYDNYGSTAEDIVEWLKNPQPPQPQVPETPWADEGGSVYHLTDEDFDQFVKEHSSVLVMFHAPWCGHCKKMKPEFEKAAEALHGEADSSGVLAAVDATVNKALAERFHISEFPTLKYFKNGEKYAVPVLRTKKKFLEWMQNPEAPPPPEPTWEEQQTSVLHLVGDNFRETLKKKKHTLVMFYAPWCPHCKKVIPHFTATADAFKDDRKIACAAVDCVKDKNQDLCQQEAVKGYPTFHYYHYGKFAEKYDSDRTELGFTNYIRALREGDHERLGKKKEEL
The experiment in a line: pull-down; competitive binding: 50 ug GST-RNASET2 mixed with 0, 50, 100, 200 ug GST-ABHD5, incubated with 50 ug immobilized His-PDIA5 at 4 C for 4 h; detected by blot; both purified.

For another assay, the target named is T2, PDIA5 (human) (UniProt Q14554).
T2 sequence: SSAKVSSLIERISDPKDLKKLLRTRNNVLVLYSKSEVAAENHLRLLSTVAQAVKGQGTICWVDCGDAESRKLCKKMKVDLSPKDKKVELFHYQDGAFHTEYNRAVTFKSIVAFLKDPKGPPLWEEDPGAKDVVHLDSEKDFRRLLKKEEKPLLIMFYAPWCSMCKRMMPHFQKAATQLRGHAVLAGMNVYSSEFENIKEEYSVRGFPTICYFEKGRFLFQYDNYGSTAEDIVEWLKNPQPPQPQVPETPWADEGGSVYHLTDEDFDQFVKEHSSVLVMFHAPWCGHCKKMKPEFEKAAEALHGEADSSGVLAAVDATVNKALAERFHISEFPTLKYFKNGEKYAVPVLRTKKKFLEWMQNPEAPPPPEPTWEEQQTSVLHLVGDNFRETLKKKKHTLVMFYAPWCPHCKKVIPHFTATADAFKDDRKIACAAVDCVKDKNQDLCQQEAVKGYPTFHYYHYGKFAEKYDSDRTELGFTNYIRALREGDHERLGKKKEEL
Briefly: co-IP; immunoprecipitation and Western blot; cell line, bait and buffer not stated. Background: Immunoblotting shows a protein as a band on a membrane.

In assay [1] the target is RNASET2, yeast two-hybrid fusion (human) (UniProt O00584). Briefly: two-hybrid; yeast two-hybrid; bait and prey not stated.

Turning to “GST-RNASET2 (from UniProt O00584 25-256) (enzyme)”, the binding entry with His-PDIA5 is given as “binds”.

B1: PNPLA2 (patatin like phospholipase domain containing 2) (protein, UniProt Q96AD5 1-504)
chain: MFPREKTWNISFAGCGFLGVYYVGVASCLREHAPFLVANATHIYGASAGALTATALVTGVCLGEAGAKFIEVSKEARKRFLGPLHPSFNLVKIIRSFLLKVLPADSHEHASGRLGISLTRVSDGENVIISHFNSKDELIQANVCSGFIPVYCGLIPPSLQGVRYVDGGISDNLPLYELKNTITVSPFSGESDICPQDSSTNIHELRVTNTSIQFNLRNLYRLSKALFPPEPLVLREMCKQGYRDGLRFLQRNGLLNRPNPLLALPPARPHGPEDKDQAVESAQAEDYSQLPGEDHILEHLPARLNEALLEACVEPTDLLTTLSNMLPVRLATAMMVPYTLPLESALSFTIRLLEWLPDVPEDIRWMKEQTGSICQYLVMRAKRKLGRHLPSRLPEQVELRRVQSLPSVPLSCAAYREALPGWMRNNLSLGDALAKWEECQRQLLLGLFCTNVAFPPEALRMRAPADPAPAPADPASPQHQLAGPAPLLSTPAPEARPVIGALGL
With B1, the binding result with PDIA5 (human) is reported as “no binding”.

B2: ABHD5 (alpha-beta hydrolase domain-containing 5) (protein, UniProt Q8WTS1 1-349)
chain: MAAEEEEVDSADTGERSGWLTGWLPTWCPTSISHLKEAEEKMLKCVPCTYKKEPVRISNGNKIWTLKFSHNISNKTPLVLLHGFGGGLGLWALNFGDLCTNRPVYAFDLLGFGRSSRPRFDSDAEEVENQFVESIEEWRCALGLDKMILLGHNLGGFLAAAYSLKYPSRVNHLILVEPWGFPERPDLADQDRPIPVWIRALGAALTPFNPLAGLRIAGPFGLSLVQRLRPDFKRKYSSMFEDDTVTEYIYHCNVQTPSGETAFKNMTIPYGWAKRPMLQRIGKMHPDIPVSVIFGARSCIDGNSGTSIQSLRPHSYVKTIAILGAGHYVYADQPEEFNQKVKEICDTVD
In the case of B2, the binding result with PDIA5 (human) is given as “binds”.

B3: ABHD5, yeast two-hybrid fusion (protein, UniProt Q8WTS1 1-349)
chain: MAAEEEEVDSADTGERSGWLTGWLPTWCPTSISHLKEAEEKMLKCVPCTYKKEPVRISNGNKIWTLKFSHNISNKTPLVLLHGFGGGLGLWALNFGDLCTNRPVYAFDLLGFGRSSRPRFDSDAEEVENQFVESIEEWRCALGLDKMILLGHNLGGFLAAAYSLKYPSRVNHLILVEPWGFPERPDLADQDRPIPVWIRALGAALTPFNPLAGLRIAGPFGLSLVQRLRPDFKRKYSSMFEDDTVTEYIYHCNVQTPSGETAFKNMTIPYGWAKRPMLQRIGKMHPDIPVSVIFGARSCIDGNSGTSIQSLRPHSYVKTIAILGAGHYVYADQPEEFNQKVKEICDTVD
On to B3, for which the binding entry in assay [1] is “no binding”.

Values taken from PMC6403256, “ABHD5 blunts the sensitivity of colorectal cancer to fluorouracil via promoting autophagic uracil yield” (Nature Communications, 2019).
